Common to all, as to type: in vivo, human
Data set [1] is described as follows: Perceived bitterness intensity (gLMS, rinse and spit): praziquantel in di water vs. in 100 mM Na Gluconate. Particulars: for subjects reporting reduced bitterness in 100 mM Na Gluconate compared to that in di water: drug concentration 0.0507 mg/mL; for subjects reporting reduced bitterness in Na Gluconate compared to that in di water: drug concentration 0.152 mg/mL. An excerpt:
(§1) Methods of evaluating the sensory properties in the Examples 2 to 4 were adopted from Breslin P A, and Tharp C D, “Reduction of saltiness and bitterness after a chlorhexidine rinse,” Chem Senses. 2001 February; 26(2):105-16. More details are illustrated below.
(§2) Subjects participated in the study after providing informed consent. Gender of the subjects was balanced between male and female. The subjects were adults with ages ranging from 20 years old to 50 years old. […] The participants were asked to refrain from eating, drinking, or chewing gum for 1 hr prior to testing. Subjects were trained to use the General Labeled Magnitude Scale (gLMS) following standard published procedures. See. e.g., Breslin P A, and Tharp C D. “Reduction of saltiness and bitterness after a chlorhexidine rinse,” Chem Senses. 2001 February; 26(2):105-16; Keast and Breslin, “Bitterness suppression with zinc sulfate and Na-cyclamate: a model of combined peripheral and central neural approaches to flavor modification.” Pharm Res. 2005 November; 22(11):1970-7. Epub 2005 Aug. 26; Green et al, “Evaluating the ‘Labeled Magnitude Scale’ for measuring sensations of taste and smell.” Chem Senses. 1996 June; 21(3):323-34; Barry G. Green, et al, “Derivation and evaluation of a semantic scale of oral sensation magnitude with apparent ratio properties,” Chemical Senses, Volume 18, Issue 6, 1 Dec. 1993, Pages 683-702; and Bartoshuk L M, “Comparing sensory experiences across individuals: recent psychophysical advances illuminate genetic variation in taste perception.” Chem Senses. 2000 August; 25(4):447-60.
(§3) Racemic praziquantel and L-praziquantel were diluted/dissolved in deionized (di) filtered water upon use into various concentrations, including 0.0019 mg/mL, 0.0056 mg/mL, 0.0169 mg/mL, 0.0507 mg/mL, and 0.152 mg/mL. Racemic praziquantel and L-praziquantel of the above indicated concentrations were also prepared in 100 mM Na Gluconate. Piperaquine was prepared and dissolved in deionized filtered water or in 1M KOH to a final concentration of 4 mg/mL, 8 mg/mL, 16 mg/mL, 26 mg/mL, or 32 mg/mL, respectively. All solutions were stored on ice or at 4° C. to 8° C. and brought up to room temperature prior to testing.
The following testing protocol was performed. The tested solutions were provided to the subjects in random order. Subjects rinsed with di water at least four times over a 2-minute period prior to tasting each solution. The subjects were instructed to wear nose clips to eliminate olfactory input, pour the whole solution in their mouth for 3-5 seconds, and rate the perceived sensation (including bitterness, sourness, astringency and nausea) intensity of the solution while it remained in the mouth, prior to expectorating. Taste intensity was recorded on a computerized gLMS, analyzed and plotted.
Seven subjects participated this study. 0.0019 mg/mL, 0.0056 mg/mL, 0.0169 mg/mL, 0.0507 mg/mL, and 0.152 mg/mL of racemic praziquantel in di water or in 100 mM Na Gluconate was prepared and provided to the subjects in random order according to the protocols described in Example 1.
Similarly, 7 subjects were given 0.0019 mg/mL, 0.0056 mg/mL, 0.0169 mg/mL, 0.0507 mg/mL, and 0.152 mg/mL of L-praziquantel in di water or in 100 mM Na Gluconate according to the protocols described in Example 1.

Data set [2] is described as follows: Perceived bitterness intensity (gLMS, rinse and spit): L-praziquantel vs. racemic praziquantel in di water.
Excerpt: as §1, §2
Racemic praziquantel and L-praziquantel were diluted/dissolved in deionized (di) filtered water upon use into various concentrations, including 0.0019 mg/mL, 0.0056 mg/mL, 0.0169 mg/mL, 0.0507 mg/mL, and 0.152 mg/mL. Racemic praziquantel and L-praziquantel of the above indicated concentrations were also prepared in 100 mM Na Gluconate. […]
The following testing protocol was performed. […] Taste intensity was recorded on a computerized gLMS, analyzed and plotted. […]

A short description of data set [3]: Perceived sensation intensity (bitterness, sourness, astringency, nausea; gLMS): piperaquine vs. piperaquine neutralized with 1M KOH. Particulars: 1M KOH vs. di water; 4-32 mg/mL.
Excerpt: as §1, §2, §3
The following testing protocol was performed. The tested solutions were provided to the subjects in random order. Subjects rinsed with di water at least four times over a 2-minute period prior to tasting each solution. […] Taste intensity was recorded on a computerized gLMS, analyzed and plotted.
Ten (10) subjects were given piperaquine in di water or neutralized with 1M KOH, at final concentrations of 4 mg/mL, 8 mg/mL, 16 mg/mL, 26 mg/mL, and 32 mg/mL and assessed according to the protocols described in Example 1.

For the compound `O=C(C1CCCCC1)N1CC(=O)N2CCc3ccccc3C2C1` (racemic) [racemic praziquantel, Praziquantel], in data set [1], the “subjects reporting reduced bitterness in 100 mM Na Gluconate compared to that in di water” value was 5 out of 7 subjects. Besides, in data set [1] (100 mM Na Gluconate), the “subjects reporting reduced bitterness in Na Gluconate compared to that in di water” value is reported as 6 out of 7 subjects.

Consider `O=C(C1CCCCC1)N1CC(=O)N2CCc3ccccc3[C@@H]2C1` [L-praziquantel, levo-praziquantel], for which the “subjects reporting a reduced bitter intensity compared to that of racemic praziquantel” value in data set [2] (at certain concentrations (0.0019-0.152 mg/mL tested), adult subjects) is on record as 10 out of 11 subjects. The “subjects scoring it less bitter compared to the racemic mixture” value in data set [2] (concentration 0.0507 mg/mL) is reported as 7 out of 11 subjects. Also, in data set [2] (concentration 0.152 mg/mL), the “subjects reporting it less bitter (than racemic praziquantel)” value was 8 out or 11 subjects. The “subjects showing that Na Gluconate reduced bitterness of L-praziquantel” value in data set [1] (100 mM Na Gluconate, at certain praziquantel concentrations, comparator printed as racemic praziquantel alone) was 4 out of 7 subjects. In addition, the “subjects reporting reduced bitterness in 100 mM Na Gluconate compared to that in di water” value in data set [1] is reported as 3 out of 7 subjects. In addition, in data set [1] (100 mM Na Gluconate), the “subjects reporting reduced bitterness in Na Gluconate compared to that in di water” value is 4 out of 7 subjects.

In the case of `Clc1ccc2c(N3CCN(CCCN4CCN(c5ccnc6cc(Cl)ccc56)CC4)CC3)ccnc2c1` [piperaquine, Piperaquine], in data set [3], the “subjects in whom pH neutralization by adding KOH reduced astringency” value is listed as 10/10, the “subjects in whom pH neutralization by adding KOH reduced bitterness” value was 10/10, the “subjects in whom pH neutralization by adding KOH reduced nausea” value is given as 5/10 and the “subjects in whom pH neutralization by adding KOH reduced sourness” value is recorded as 9/10.

(Values after US20210007977A1, “COMPOSITIONS AND METHODS OF AMELIORATING PHARMACEUTICAL AVERSIVENESS WITH SALTS” (Monell Chemical Senses Center, priority 2018, published 2021).)
